Data as given in PubChem BioAssay AID504834 (National Center for Advancing Translational Sciences (NCATS), 2011).
Screen size: about 320,000 compounds; about 22,000 (6.9%) were called active. The shares of active, inactive and inconclusive entries below differ from those in the screen. Calls follow the shape of the dose curve; as a rule, active = well fitted inhibition curve with a large enough effect; inconclusive = small, poorly fitted or top-dose-only effect, or another doubt; inactive = no such curve, though single readings can be large or run the other way. Potencies of inconclusive entries are doubtful fits and often do not repeat.

Assay: Primary qHTS for delayed death inhibitors of the malarial parasite plastid, 96 hour incubation
Settings: P. falciparum luciferase reporter growth; series mostly up to 28.7 µM
Summary of the method: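 P. falciparum expressing integrated firefly luciferase, in erythrocytes at 2% hematocrit, 0.05% parasitemia, incubated with compounds 96 h at 37 C, 5% CO2. Growth inhibition read as loss of luminescence; two-generation exposure targets delayed-death apicoplast inhibitors.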
Potency is read from the fitted curve at half-maximal effect.

SMILES	Potency
CC(=O)c1ccc(NC(=O)Nc2cccc(Cl)c2)cc1	inconclusive: 16.5 µM [inhibitor, single point]
CCOC(=O)C1=C(C)Nc2nnnn2C1c1cccnc1 (centres undefined)	inconclusive: 2.08 µM [inhibitor, full curve, poor fit]
CC(C)(C)C1CCc2sc(-c3nnc(CCl)o3)cc2C1 (centres undefined)	inconclusive: 13.1 µM [inhibitor, single point]
COC(=O)C1=C(C)Nc2nc3ccccc3n2C1c1cc(OC)c(OC)c(OC)c1 (centres undefined)	inconclusive: 4.65 µM [inhibitor, partial curve]
CCOC(=O)Cc1cn(C(=O)OC(C)(C)C)c2ccccc12	inconclusive: 16.5 µM [inhibitor, single point]
CCOc1ccc(NC(=O)NC(C)CC)cc1 (centres undefined)	active: 9.28 µM
Cc1ccc(C(=O)NC(=S)NCC2CCCO2)cc1[N+](=O)[O-] (centres undefined)	inactive
COc1ccc(OC)c(S(=O)(=O)Nc2ccccc2C(=O)N2CCCCC2)c1	inactive
Cc1ncc(CO)c(/C=N/NC(=O)c2cc3c(s2)CCCC3)c1O	inconclusive: 18.5 µM [inhibitor, single point]
CCCOc1nc(SCCC)nc2c1cnn2-c1ccccc1	inconclusive: 13.1 µM [inhibitor, single point]
COc1ccc(S(=O)(=O)N(C)C)cc1NC(=O)c1ccc2c(c1)NC(=O)C(C)S2 (centres undefined)	active: 5.22 µM
Nc1nonc1-n1nnc(C(=O)N/N=C/c2cccc(Cl)c2)c1CSc1ccc(Cl)cc1	inconclusive: 18.5 µM [inhibitor, single point]
O=Cc1c(C(=O)O)n(Cc2ccccc2Cl)c2ccccc12	inconclusive: 4.15 µM [inhibitor, single point]
Cc1cccc(CCN2C(Nc3ccccc3)=NC[C@@H]2CC(C)C)c1	inconclusive: 18.5 µM [inhibitor, single point]
Cc1ccc(CN(C(=O)Cn2nnc3ccccc32)C(C(=O)NCc2ccco2)c2ccc(C)o2)cc1 (centres undefined)	inconclusive: 10.4 µM [inhibitor, partial curve, poor fit]
Cc1cc(=O)oc2c3c(cc(OCC(=O)NCCN4CCOCC4)c12)OC(C)(C)CC3	inconclusive: 11.7 µM [inhibitor, partial curve, poor fit]
O=C(NCCSc1ccc(Br)cc1)c1ccccc1	inconclusive: 9.28 µM [inhibitor, single point]
CN(CC(=O)NCCC1=CCCCC1)S(=O)(=O)c1ccc2c(c1)CCC(=O)N2	active: 3.29 µM
O=C(NCc1ccco1)c1ccc2ccccc2n1	active: 10.4 µM
O=C(c1ccc(COc2ccccc2[N+](=O)[O-])o1)N1CCCCCC1	inconclusive: 1.17 µM [inhibitor, partial curve, poor fit]
Cc1cc(Nc2cc(F)ccc2C)n2ncnc2n1	inconclusive: 2.33 µM [inhibitor, full curve]
Cc1sc(NC(=O)/C=C/c2ccco2)c(C(=O)OC(C)C)c1C	inactive
COc1cccc2c1C(=O)C=C(C)C2=O	active: 14.7 µM
Cc1cccc(C)c1NC(=O)CN(C)c1ccc(C(F)(F)F)cn1	inconclusive: 4.15 µM [inhibitor, single point]
CS(=O)(=O)CCSc1ncccc1C(=O)NCc1cccs1	inactive

4 structures already listed, arranged by molecular weight, smallest number first:
SMILES	Potency
CCOc1ccc(NC(=O)NC(C)CC)cc1 (centres undefined)	active: 9.28 µM
Cc1sc(NC(=O)/C=C/c2ccco2)c(C(=O)OC(C)C)c1C	inactive
O=C(NCCSc1ccc(Br)cc1)c1ccccc1	inconclusive: 9.28 µM [inhibitor, single point]
COc1ccc(OC)c(S(=O)(=O)Nc2ccccc2C(=O)N2CCCCC2)c1	inactive

(listing goes on)

SMILES	Potency
CCOC(=O)c1sc(=S)n(C)c1NC(=O)c1ccc(OC)cc1	inactive
c1ccc(C[C@H]2CNCCN2CCC23CC4CC(CC(C4)C2)C3)cc1	inconclusive: 18.5 µM [inhibitor, single point]
CCC(=O)Nc1ccc(S(=O)(=O)N2CCC(c3nc4ccccc4[nH]3)CC2)cc1	inconclusive: 3.29 µM [inhibitor, partial curve]
O=C(N/N=C/C1CCCCC1)c1cc(Cl)ccc1O	inactive
COc1ccc(CCNCC(O)COc2cccc(Br)c2)cc1OC (centres undefined)	active: 9.28 µM
Cc1cc([N+](=O)[O-])nn1CC(=O)NC1CCCCC1	inconclusive: 6.57 µM [inhibitor, partial curve, poor fit]
Cc1ccc2c3c(c(SCC(=O)Nc4nccs4)nc2c1)CCCC3	inactive
Cc1ccc(S(=O)(=O)N2CCOCC2)cc1C(=O)NCCN1C(=O)S/C(=C\c2ccccc2Cl)C1=O	inconclusive: 13.1 µM [inhibitor, single point]
COc1ccc(C(=O)NC(CO)c2nnc(SCc3ccc(Cl)c(Cl)c3)n2C)cc1 (centres undefined)	inconclusive: 0.0738 µM [inhibitor, full curve, poor fit]
Cc1cc(C)n(-c2nc3c(c(=O)[nH]c(=O)n3C)n2C)n1	inactive
CCC(=O)N1CCc2cc(S(=O)(=O)N3CCc4ccccc43)ccc21	inconclusive: 7.38 µM [inhibitor, partial curve]
O=C1Oc2ccccc2C(=O)C1C(CC(O)c1ccc(-c2ccc(Br)cc2)cc1)c1ccccc1 (centres undefined)	inactive
Clc1ccccc1Nc1nnc(-c2ccncc2)s1	inactive
Cc1cccc(-c2cc(C(=O)N3CCCc4ccccc43)c3ccccc3n2)c1	inconclusive: 18.5 µM [inhibitor, single point]
CCC1(CC)Cc2ccccc2C(CC(=O)N2CCOCC2)=N1	inconclusive: 7.38 µM [inhibitor, partial curve, poor fit]
CCn1c(COc2ccc(C)cc2)nnc1SCc1nc2ccccc2[nH]1	inconclusive: 8.28 µM [inhibitor, partial curve, poor fit]
O=C(COC(=O)c1ccco1)Nc1nnc(-c2ccccc2)o1	inconclusive: 9.28 µM [inhibitor, partial curve, poor fit]
NC(=O)c1ccc(NC(=O)COC(=O)c2cc([N+](=O)[O-])ccc2N2CCOCC2)cc1	inactive
CCOc1ccccc1NC(=O)CSc1nc(=O)n(CCCN2CCOCC2)c2c1CCC2	inconclusive: 13.1 µM [inhibitor, single point]
CCOc1ccc(N(CC(=O)OC)S(=O)(=O)c2ccc(OC)c(OC)c2)cc1	inactive
O=C(NNC1OC(CO)C(O)C(O)C1O)c1cccnc1 (centres undefined)	inconclusive: 8.28 µM [inhibitor, partial curve, poor fit]
COc1ccc(C(=O)Nc2cccc(-c3nc4ncccc4o3)c2C)cc1OC	active: 3.7 µM
CCOC(=O)C1=C(C)Nc2nc(SCC)nn2C1c1ccc(OC)cc1 (centres undefined)	active: 13.1 µM
COc1ccc(C(=O)N/N=C/c2cn[nH]c2-c2ccc(OC)cc2OC)cc1	inconclusive: 10.4 µM [inhibitor, single point]
CCCc1nc(NCc2ccccc2)c(C#N)c2c1CCCC2	inconclusive: 10.4 µM [inhibitor, partial curve, poor fit]

SMILES	Potency
COc1ccc(-c2cc3c(=O)n(CC(=O)NCCCc4ccccc4)ncn3n2)cc1	inconclusive: 10.4 µM [inhibitor, single point]
Cc1ccc(NC(=S)N2CCn3cccc3C2c2cccnc2)cc1 (centres undefined)	inconclusive: 0.0928 µM [inhibitor, full curve, poor fit]
CCNC(=S)NNC(=O)c1cc(-c2cc(C)ccc2C)nc2ccccc12	active: 5.22 µM
O=C(OCc1c(Cl)nc2sccn12)c1cc2c(s1)CCCC2	inconclusive: 18.5 µM [inhibitor, single point]
C=CCN1C(=O)N/C(=C/c2ccc(C)o2)C1=O	inactive
O=C(NCCNC(=O)c1ccco1)c1ccc(F)cc1	inactive
Cn1c(SCC(=O)N2CCN(S(=O)(=O)c3ccc(Cl)cc3)CC2)nc2ccccc21	active: 10.4 µM
O=c1cc(CN2CCN(S(=O)(=O)/C=C/c3ccccc3)CC2)c2ccc(O)cc2o1	active: 11.7 µM
O=C(NNC(=S)NC1CCCCC1)c1ccccc1Br	inconclusive: 3.7 µM [inhibitor, full curve, poor fit]
COc1ccc(N2C(=O)CN=C2Nc2cccc(C)c2C)cc1OC	inactive
COc1ccc(NC(=O)c2csc(C)c2)cc1OC	inactive
CCOC(=O)c1nnn2c1nc(N1CCN(C)CC1)c1ccccc12	inconclusive: 1.65 µM [inhibitor, partial curve, poor fit]
Cc1cc(N2C(=O)C(O)=C(C(=O)c3ccco3)C2c2ccccc2F)no1 (centres undefined)	inconclusive: 4.15 µM [inhibitor, partial curve, poor fit]
CCCS(=O)(=O)C(=C1NCCO1)S(=O)(=O)CCC	inconclusive: 5.22 µM [inhibitor, single point]
O=C(O)/C(=C\c1cn(-c2ccccc2)nc1-c1cccnc1)NC(=O)c1ccccc1	inconclusive: 4.15 µM [inhibitor, single point]
O=C(COC(=O)C1CCCCC1)Nc1cccc(Br)c1	inconclusive: 0.928 µM [inhibitor, partial curve, poor fit]
O=C(NCCCc1ccccc1)[C@@H]1Cc2ccccc2CN1	inactive
CN1CCN(Cc2cccc3ncccc23)CC1CCO (centres undefined)	inconclusive: 3.29 µM [inhibitor, single point]
COC(=O)c1cccc2nc3c(C(C)O)cccc3nc12 (centres undefined)	inconclusive: 10.4 µM [inhibitor, partial curve]
O=C(CNS(=O)(=O)c1ccc(Br)s1)NCCc1ccc(Cl)cc1	inactive
CN(C)S(=O)(=O)c1ccc(C(=O)NCC[N+]2(C)CCCCCC2)o1	active: 9.28 µM
COCCn1nnnc1CN1CCSCC1	inactive
CCNc1nc(NC(N)=S)nc(NC(C)(C)C)n1	inactive
O=C(N/N=C\c1cccc([N+](=O)[O-])c1O)C1COc2ccccc2O1 (centres undefined)	inactive
